Data as given in publication PMC3757244.
These are yes or no findings as the source states them, for the method shown. Binding seen in cells or lysates may run through a third protein. Some entries that bind do so weakly or less than the wild type. For part of these data: Sequences can lack the tags named with a protein.

The chains behind the UniProt entries cited, without tags or fusion partners. Where a name states a change or a piece, a line headed by the entry shows the natural chain unless it says otherwise.
UniProt P03372: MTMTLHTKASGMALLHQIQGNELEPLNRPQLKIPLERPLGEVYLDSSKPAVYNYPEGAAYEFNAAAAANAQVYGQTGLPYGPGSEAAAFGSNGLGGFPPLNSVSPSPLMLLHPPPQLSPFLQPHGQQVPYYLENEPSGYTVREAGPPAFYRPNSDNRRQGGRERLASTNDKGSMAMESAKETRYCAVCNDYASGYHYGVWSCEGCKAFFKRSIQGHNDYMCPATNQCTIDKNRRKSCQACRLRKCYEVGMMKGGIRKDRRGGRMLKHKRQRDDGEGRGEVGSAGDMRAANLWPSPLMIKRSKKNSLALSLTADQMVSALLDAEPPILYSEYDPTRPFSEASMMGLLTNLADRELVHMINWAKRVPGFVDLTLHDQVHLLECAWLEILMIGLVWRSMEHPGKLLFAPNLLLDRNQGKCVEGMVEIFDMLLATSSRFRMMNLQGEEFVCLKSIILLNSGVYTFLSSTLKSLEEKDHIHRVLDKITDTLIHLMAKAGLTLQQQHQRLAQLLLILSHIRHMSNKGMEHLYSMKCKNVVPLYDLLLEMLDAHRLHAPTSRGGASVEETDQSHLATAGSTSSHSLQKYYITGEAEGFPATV

B1: Retinoblastoma protein (pRb) (protein, UniProt P06400 1-928)
chain: MPPKTPRKTAATAAAAAAEPPAPPPPPPPEEDPEQDSGPEDLPLVRLEFEETEEPDFTALCQKLKIPDHVRERAWLTWEKVSSVDGVLGGYIQKKKELWGICIFIAAVDLDEMSFTFTELQKNIEISVHKFFNLLKEIDTSTKVDNAMSRLLKKYDVLFALFSKLERTCELIYLTQPSSSISTEINSALVLKVSWITFLLAKGEVLQMEDDLVISFQLMLCVLDYFIKLSPPMLLKEPYKTAVIPINGSPRTPRRGQNRSARIAKQLENDTRIIEVLCKEHECNIDEVKNVYFKNFIPFMNSLGLVTSNGLPEVENLSKRYEEIYLKNKDLDARLFLDHDKTLQTDSIDSFETQRTPRKSNLDEEVNVIPPHTPVRTVMNTIQQLMMILNSASDQPSENLISYFNNCTVNPKESILKRVKDIGYIFKEKFAKAVGQGCVEIGSQRYKLGVRLYYRVMESMLKSEEERLSIQNFSKLLNDNIFHMSLLACALEVVMATYSRSTSQNLDSGTDLSFPWILNVLNLKAFDFYKVIESFIKAEGNLTREMIKHLERCEHRIMESLAWLSDSPLFDLIKQSKDREGPTDHLESACPLNLPLQNNHTAADMYLSPVRSPKKKGSTTRVNSTANAETQATSAFQTQKPLKSTSLSLFYKKVYRLAYLRLNTLCERLLSEHPELEHIIWTLFQHTLQNEYELMRDRHLDQIMMCSMYGICKVKNIDLKFKIIVTAYKDLPHAVQETFKRVLIKEEEYDSIIVFYNSVFMQRLKTNILQYASTRPPTLSPIPHIPRSPYKFPSSPLRIPGGNIYISPLKSPYKISEGLPTPTKMTPRSRILVSIGESFGTSEKFQKINQMVCNSDRVLKRSAEGSNPPKPLKKLRFDIEGSDEADGSKHLPGESKFQQKLAEMTSTRTRMQKQKMNDSMDTSNKEEK
B2: p23 (protein, UniProt Q15185 1-160)
chain: MQPASAKWYDRRDYVFIEFCVEDSKDVNVNFEKSKLTFSCLGGSDNFKHLNEIDLFHCIDPNDSKHKRTDRSILCCLRKGESGQSWPRLTKERAKLNWLSVDFNNWKDWEDDSDEDMSNFDRFSEMMNNMGGDEDVDLPEVDGADDDSQDSDDEKMPDLE

Key:
[1] = biological target: T1, GST-Rb N-terminal (1-373 a.a.) (UniProt P06400); test: pull-down; GST pull down with GST-pRb N-terminal, Pocket and C-terminal domains; ESR1 AB, CD and EF domains in MCF7 cells; only the target purified
T1 sequence: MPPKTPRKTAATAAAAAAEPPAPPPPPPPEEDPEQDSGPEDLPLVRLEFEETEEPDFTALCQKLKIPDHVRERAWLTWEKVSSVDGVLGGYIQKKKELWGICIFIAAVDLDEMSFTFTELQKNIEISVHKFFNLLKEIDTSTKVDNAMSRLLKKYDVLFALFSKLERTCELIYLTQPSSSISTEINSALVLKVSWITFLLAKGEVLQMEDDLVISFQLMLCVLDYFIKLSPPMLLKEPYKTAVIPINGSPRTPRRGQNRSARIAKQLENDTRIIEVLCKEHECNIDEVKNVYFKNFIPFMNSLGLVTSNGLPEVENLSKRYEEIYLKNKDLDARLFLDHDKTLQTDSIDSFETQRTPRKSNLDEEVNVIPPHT

[2] = biological target: Estrogen receptor alpha (ESR1) (human (endogenous in MCF7)) (UniProt P03372); test: co-IP; endogenous proteins of MCF7 lysate (20 mM Tris HCl pH 8, 137 mM NaCl, 10% glycerol, 1% NP40, 2 mM EDTA); 3 mg protein immunoprecipitated with 4 ug ERα antibody or mouse IgG overnight at 4°C, protein A/G beads; western blot; for the chaperones cells untreated or treated with MG132 for 4 hours, scrambled or RB1 kd1

Molecule | binding [1] | binding [2]
ERα His-CD (CD domain of ESR1) (from UniProt P03372 179-303) (domain or fragment) | binds | 
B1 |  | binds
B2 |  | binds
